Measured values: PubChem BioAssay AID1439 (NMMLSC, 2008)
About 770 (0.35%) of roughly 220,000 compounds were called active. Inconclusive results, whose numbers are uncertain, are shown with a selection of clear calls. No stated cut-off is given here; in the data, active means binding response below about 49% or above about 150%; inconclusive means no clear call, values can overlap the other calls; inactive means in between.

Chains of the proteins cited; added tags and fusions are not shown.
UniProt P09471, whole entry, looked up: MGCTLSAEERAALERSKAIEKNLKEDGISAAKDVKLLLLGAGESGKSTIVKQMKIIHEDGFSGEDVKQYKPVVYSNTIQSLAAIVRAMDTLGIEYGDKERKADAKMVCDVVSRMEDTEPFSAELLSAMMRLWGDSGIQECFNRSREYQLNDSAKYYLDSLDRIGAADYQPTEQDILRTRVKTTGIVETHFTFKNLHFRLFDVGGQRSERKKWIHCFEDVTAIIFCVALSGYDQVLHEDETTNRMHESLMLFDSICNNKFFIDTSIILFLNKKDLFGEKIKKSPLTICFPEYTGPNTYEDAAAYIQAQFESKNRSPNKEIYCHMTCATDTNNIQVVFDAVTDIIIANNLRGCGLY

Molecular target: Guanine nucleotide-binding protein G(o) subunit alpha (Homo sapiens) (UniProt P09471)
Experiment: RGS7-Galphao binding modulators, primary screen, biochemical, multiplexed bead flow cytometry (AID 1439);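 further: fluorescent Galphao held in activated GDP-AlF4 state binding bead-coupled RGS7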
Conditions: at 10 µM, actives lie on both sides

Row | SMILES | binding response (% of control)
1 | COc1ccc(C(CNC(=O)/C=C/c2c(Cl)nc3ccccn23)N(C)C)cc1 (stereo not given) | inconclusive: 102%
2 | CCOCCCNc1nc2c(C)cccn2c(=O)c1/C=C1\SC(=S)N(CC(C)C)C1=O | inactive: 114%
3 | CCOC(=O)N1CCC2(CC1)NCCc1c2[nH]c2ccccc12 | inconclusive: 79.2%
4 | CCC(C)(C(=O)NC1CCCCC1)N(C(=O)Cc1cccs1)c1ccccc1 (stereo not given) | inactive: 97.8%
5 | Cc1cc(/C=N/NC(=O)c2ccncc2)c(C)n1-c1cccc(C(F)(F)F)c1 | inconclusive: 268%
6 | N#CC1=C(N)N(c2ncn[nH]2)C2=C(C(=O)CCC2)C1c1ccc(F)cc1 (stereo not given) | inactive: 102%
7 | Nc1ccc(S(=O)(=O)Nc2nccc(/C=C/c3ccc(Cl)cc3Cl)n2)cc1 | inconclusive: 75.7%
8 | CC(C)(C)c1ccc(C(=O)Nc2ccc(F)cc2)s1 | inconclusive: 99.5%
9 | COc1ccc(/C=N/NC(=O)c2cccnc2)cc1COc1ccc(NC(C)=O)cc1 | inconclusive: 135%
10 | O=C(Cc1ccc(Br)cc1)Nc1ncc([N+](=O)[O-])s1 | inconclusive: 86.4%
11 | COc1ccc(CC(=O)NCC(=O)N/N=C/c2cc(Br)ccc2OC)cc1 | inconclusive: 102%
12 | Cc1ccc(C(C[N+](=O)[O-])c2c(N)n(C)c(=O)n(C)c2=O)cc1 (stereo not given) | inconclusive: 100%
13 | COc1cccc(NC(=O)C(Cc2ccccc2)n2cccc2)c1 (stereo not given) | inconclusive: 101%
14 | COc1ccc2cc(Br)ccc2c1CC(=O)N(C)C | inconclusive: 83.8%
15 | CCOc1[nH]n(-c2ccccc2)c(=O)c1C=NCC(=O)OC | inconclusive: 99.2%
16 | Clc1ccc(-c2nc(NCCCN3CCOCC3)c3ccccc3n2)cc1 | inconclusive: 97%
17 | O=C(O)/C=C/C(=O)NC1CCC(CC2CCC(NC(=O)/C=C/C(=O)O)CC2)CC1 (stereo not given) | inactive: 101%
18 | Fc1ccc(N2CCN(Cc3ccccn3)CC2)cc1 | inconclusive: 101%
19 | COC(=O)c1cnc(SCc2ccc(Cl)cc2)n1C | inconclusive: 132%
20 | Cc1ccc(NC(=S)N2CCC(c3nc4ccccc4s3)CC2)cc1C | inactive: 101%
21 | O=C1CC(c2ccccc2Cl)=NN(c2ncnc3ccccc23)C1=O | inconclusive: 94.6%
22 | CCOc1ccccc1NC(=O)C(Sc1nnnn1C)c1ccccc1 (stereo not given) | inconclusive: 101%
23 | Cc1cc(-c2nnc(SCC(=O)Nc3ccc(C(F)(F)F)cc3)n2C)no1 | inconclusive: 124%

Row | SMILES | binding response (% of control)
24 | CCCCNC(=O)NC12CC3CC(CC(C3)C1)C2 | inconclusive: 103%
25 | CN(C)c1c(F)cc(-c2nn[nH]n2)cc1F | inconclusive: 50.7%
26 | CCN(CC)c1ccc(/C=C/c2cc(-c3ccccc3)c3ccccc3n2)cc1 | inconclusive: 884%
27 | O=c1[nH][nH]c2ccccc2c1=O | inconclusive: 75.3%
28 | COc1ccc(/C=N/NC(=O)c2c(C)nc3ccccn23)cc1[N+](=O)[O-] | inconclusive: 26.9%
29 | CCc1ccccc1NCC(=O)Nc1ccc(Cl)c(C(F)(F)F)c1 | inactive: 92.4%
30 | O=C(Nc1nnc(C2CC2)s1)c1cccnc1Oc1ccc(Cl)cc1 | inconclusive: 102%
31 | CN(C)c1ccc(/C=N/NC(=O)c2sccc2-n2cccc2)cc1 | inactive: 93.2%
32 | COc1ccc(S(=O)(=O)NCc2c(-c3ccccc3)noc2C)c(OC)c1 | inconclusive: 153%
33 | COc1ccc(CN2C(=O)c3ccccc3C2C(=O)NC2CCC(C)CC2)c(OC)c1 (stereo not given) | inactive: 107%
34 | O=C(NCCN=C1NS(=O)(=O)c2ccccc21)c1ccncc1 | active: 163% [activator]
35 | Cc1ccsc1/C=N\NC(=O)CCc1c(C)n[nH]c1C | inconclusive: 92.6%
36 | O=C(Nc1ccc(N2CCOCC2)c(S(=O)(=O)Nc2ccc(Cl)cc2)c1)c1cnccn1 | inconclusive: 125%
37 | COc1ccc(OC)c(CNC(=O)c2coc(=O)c3ccccc23)c1 | inconclusive: 110%
38 | CCn1c(=O)c2cc(C(=O)Nc3ccc(OC)cc3OC)sc2c2ccccc21 | inconclusive: 999%
39 | Cc1nccc(-c2cccc(NC(=O)Nc3ccc(Cl)cc3)c2)n1 | inconclusive: 232%
40 | O=C(CNC(=O)c1ccccc1)OCc1nnc(-c2ccc(Cl)cc2)o1 | inconclusive: 84.8%
41 | COC(=O)c1sc(C(F)(F)F)c(-c2ccccc2)c1S(=O)(=O)NC(C)(C)C | inconclusive: 119%
42 | Cc1ccc(OCC(=O)Nc2nnc(C3CCCO3)s2)c(Br)c1 (stereo not given) | inactive: 99.1%
43 | O=C(Cn1cncn1)N/N=C/c1cccnc1 | inconclusive: 95.5%
44 | CCc1nnc(SCc2ccc(OC)c(Br)c2)n1N | active: 35.4%
45 | O=C(O)C[C@@H]1C(=O)O[C@@H]2C(COC(=O)c3cc(O)c(O)c(O)c3)O[C@@H](OC(=O)c3cc(O)c(O)c(O)c3)[C@@H](OC(=O)c3cc(O)c(O)c4c3[C@H]1[C@H](O)C(=O)O4)[C@H]2OC(=O)c1cc(O)c(O)c(O)c1 (stereo not given in full) | inconclusive: -146%
46 | COc1ccc(/C=C/C(=O)N[C@@H](C)C(=O)O)cc1 | inactive: 105%

Fetched by structure from the entries so far (3):
Row | SMILES | binding response (% of control)
14 | COc1ccc2cc(Br)ccc2c1CC(=O)N(C)C | inconclusive: 83.8%
20 | Cc1ccc(NC(=S)N2CCC(c3nc4ccccc4s3)CC2)cc1C | inactive: 101%
7 | Nc1ccc(S(=O)(=O)Nc2nccc(/C=C/c3ccc(Cl)cc3Cl)n2)cc1 | inconclusive: 75.7%

Next compounds follow:

Row | SMILES | binding response (% of control)
47 | Cc1cccc(NC(=S)NCCc2ccc3c(c2)OCCO3)c1C | inactive: 99.5%
48 | Cc1cc(C(F)(F)F)n(-c2nc(C(=O)Nc3cccnc3)cs2)n1 | inconclusive: 68.2%
49 | O=C(O)CC1NCCc2ccccc21 (stereo not given) | inconclusive: 137%
50 | Fc1ccc(-n2ncc3c(SCc4cccnc4)ncnc32)cc1 | inconclusive: 122%
51 | COc1ccccc1CCNS(=O)(=O)c1cn(C)c(=O)n(C)c1=O | inconclusive: 110%
52 | CC(C)C(=O)N=C1SC2CS(=O)(=O)CC2N1Cc1ccc(Cl)cc1 (stereo not given) | inconclusive: 78.6%
53 | Cc1ccc(S(=O)(=O)NCCC(=O)Nc2cccc(Cl)c2)cc1 | inactive: 99.1%
54 | COc1cc(C)ccc1Oc1nc(-c2ccccc2O)nc2ccccc12 | inconclusive: 181%
55 | Cc1ccc(/C=N/N=C2/NC(=O)C(CC(=O)Nc3ccccc3)S2)o1 (stereo not given) | inactive: 98.3%
56 | CCC(C)C(NC(=O)c1ccc(Cl)cc1)C(=O)Nc1cccnc1 (stereo not given) | inconclusive: 94.2%
57 | CC(C(=O)Nc1ccccc1-c1ccccc1)N1CCN(Cc2ccccc2)CC1 (stereo not given) | inconclusive: 86.2%
58 | CCOC(=O)c1[nH]c2ccccc2c1NC(=O)CC(C)C | inconclusive: 87.8%
59 | CN1C(C(=O)NCc2cccc(Br)c2)CC2Cn3c(nc4cc(Cl)c(Cl)cc43)C21 (stereo not given) | inconclusive: 86.2%
60 | Cn1c(=O)c([N+](=O)[O-])c(NCc2ccc3c(c2)OCO3)c2ccccc21 | inconclusive: 99.6%
61 | C=CCOc1ccc(/C=C2\SC(=S)N(C(C(=O)O)c3ccccc3)C2=O)cc1 (stereo not given) | inconclusive: 92.5%
62 | CCc1ccccc1NC(=O)Nc1cccc(F)c1 | inconclusive: 97.4%
63 | O=C(Nc1ccccc1C(=O)N/N=C/c1ccc(O)cc1)c1ccccc1 | inconclusive: 118%
64 | CC1=NOC(=O)/C1=C\c1ccc(-c2ccccc2Br)o1 | inactive: 88.5%
65 | COc1cc([N+](=O)[O-])cc(/C=N/NC(=O)CSc2nnc(-c3ccccc3)n2C)c1O | inconclusive: 102%
66 | C/C(=N/NC(=O)CN1CCN(Cc2ccccc2Cl)CC1)c1cccnc1 | inconclusive: 86.1%
67 | O=C(Cn1cnc2ccccc2c1=O)N/N=C/c1ccc(Br)cc1 | inconclusive: 38.9%
68 | CC(C)C(NC(=O)c1ccco1)C(=O)OCC(=O)Nc1ccc(C(N)=O)cc1 (stereo not given) | inconclusive: 93.2%
69 | N/C(COc1cccc(Cl)c1)=N\O | inconclusive: 123%

Ordered by length of the SMILES (falling): some entries from above
Row | SMILES | binding response (% of control)
68 | CC(C)C(NC(=O)c1ccco1)C(=O)OCC(=O)Nc1ccc(C(N)=O)cc1 (stereo not given) | inconclusive: 93.2%
39 | Cc1nccc(-c2cccc(NC(=O)Nc3ccc(Cl)cc3)c2)n1 | inconclusive: 232%
29 | CCc1ccccc1NCC(=O)Nc1ccc(Cl)c(C(F)(F)F)c1 | inactive: 92.4%

Following part.

Row | SMILES | binding response (% of control)
70 | COC(=O)c1ccc(S(=O)(=O)NCc2ccccn2)n1C | inconclusive: 94%
71 | Cc1cccc(N/C=C(\[N+](=O)[O-])S(=O)(=O)c2ccccc2)c1C | inconclusive: 113%
72 | CSC1=NCCN1C(=O)c1ccc(C)cc1 | inconclusive: 75.5%
73 | CCCC(CCC(=O)Nc1cccc([N+](=O)[O-])c1)C(=O)O (stereo not given) | inconclusive: 114%
74 | Cc1ccccc1N/C(SCc1ccc(Cl)cc1)=C(/C#N)C(=O)NCc1ccco1 | inactive: 140%
75 | O=C(c1ccccc1)C1CCN(C(=O)c2cccs2)CC1 | inconclusive: 75%
76 | Nc1nc(NCCCN2CCOCC2)nc(NCc2ccccc2)c1[N+](=O)[O-] | inconclusive: 91.6%
77 | CCOC(=O)C(=CNc1ccc(C(F)(F)F)cc1Cl)C(=O)OCC | inconclusive: 106%
78 | CN1CCC(=C2c3ccccc3C(O)c3ccccc32)CC1 (stereo not given) | inconclusive: 60.5%
79 | CC(C)c1ccc(NC(=O)CSc2n[nH]c(=O)n2Cc2ccco2)cc1 | inconclusive: 112%
80 | O=C(CSc1nnc(CCCO)n1-c1ccccc1)Nc1nccs1 | inactive: 105%
81 | Cc1ccc(NC(=O)CN2C(=O)NC(Cc3ccccc3)C2=O)c(Br)c1 (stereo not given) | inconclusive: 96%
82 | O=C(NCc1ccc(Cl)cc1)c1ccc(CNc2c(N3CCCC3)c(=O)c2=O)cc1 | inconclusive: 215%
83 | O=C(COC(=O)c1cnccn1)NCc1ccc2c(c1)OCO2 | inconclusive: 83%
84 | CC(CCc1ccccc1)NC(=O)N1CCOCC1 (stereo not given) | inactive: 104%
85 | Cc1c(-c2ccc(Br)cc2)[n+](=O)c2c(n1[O-])CCCCC2 | inconclusive: 9.45%
86 | Cn1c(N)c(C(=O)COC(=O)CCOc2ccc(C(C)(C)C)cc2)c(=O)n(C)c1=O | inconclusive: 94.2%
87 | COc1cccc(/C=N/NC(=O)c2cnn(-c3ccccc3)c2N)c1 | inconclusive: 80.6%
88 | COc1ccccc1/C=N\N=C(\N)c1ccccn1 | inactive: 99.4%
89 | NS(=O)(=O)c1ccc2nc(NC(=O)c3ccncc3)sc2c1 | inactive: 105%
90 | COc1nc(N)c(S(=O)(=O)c2ccccc2)cc1C#N | inactive: 117%
